Measurements reported in paper PMC11612967.
No constants are given. Whether binding was seen depends on the method and setting. In cells and extracts the contact can be indirect. Some results given as binding are weak or reduced against the parent protein; the word gives no strength.

How the values were obtained:
Test in all cases: pull-down; S. pombe Smc5/6 subunits co-expressed in Sf9 cells by baculovirus, one subunit tagged (N- or C-terminal); pellets processed as for the small-scale expression in E. coli; single affinity step; Coomassie-stained SDS-PAGE
[1] = molecular target: T1, S. pombe Nse1 (S. pombe) (UniProt Q53EK2)
T1 sequence: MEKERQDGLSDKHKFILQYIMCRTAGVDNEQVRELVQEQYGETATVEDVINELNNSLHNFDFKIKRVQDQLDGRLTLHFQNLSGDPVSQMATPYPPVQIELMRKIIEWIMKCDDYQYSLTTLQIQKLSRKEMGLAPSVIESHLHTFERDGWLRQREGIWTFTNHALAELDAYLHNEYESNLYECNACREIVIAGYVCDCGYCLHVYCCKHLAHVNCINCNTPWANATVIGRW

[2] = molecular target: T2, S. pombe Nse2 (S. pombe) (UniProt Q4PIR3)
T2 sequence: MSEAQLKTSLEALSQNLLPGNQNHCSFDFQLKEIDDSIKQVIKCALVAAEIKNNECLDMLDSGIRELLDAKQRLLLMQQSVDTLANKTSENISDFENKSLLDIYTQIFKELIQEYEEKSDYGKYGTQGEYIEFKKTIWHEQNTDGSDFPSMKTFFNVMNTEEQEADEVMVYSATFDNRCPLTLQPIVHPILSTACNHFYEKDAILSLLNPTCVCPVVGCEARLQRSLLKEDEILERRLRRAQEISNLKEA

[3] = molecular target: T3, S. pombe Nse3 (S. pombe) (UniProt Q9Y7U4)
T3 sequence: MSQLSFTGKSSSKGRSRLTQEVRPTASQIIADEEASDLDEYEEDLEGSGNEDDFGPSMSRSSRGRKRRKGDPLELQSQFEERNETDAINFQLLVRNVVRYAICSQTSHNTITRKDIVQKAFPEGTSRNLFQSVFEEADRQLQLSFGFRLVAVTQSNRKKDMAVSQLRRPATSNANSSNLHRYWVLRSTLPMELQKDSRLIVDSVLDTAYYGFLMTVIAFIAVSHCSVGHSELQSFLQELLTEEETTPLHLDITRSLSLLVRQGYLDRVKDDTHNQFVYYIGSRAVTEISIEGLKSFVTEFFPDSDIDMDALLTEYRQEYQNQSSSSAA

[4] = molecular target: T4, S. pombe Smc5 (S. pombe) (UniProt O13710)
T4 sequence: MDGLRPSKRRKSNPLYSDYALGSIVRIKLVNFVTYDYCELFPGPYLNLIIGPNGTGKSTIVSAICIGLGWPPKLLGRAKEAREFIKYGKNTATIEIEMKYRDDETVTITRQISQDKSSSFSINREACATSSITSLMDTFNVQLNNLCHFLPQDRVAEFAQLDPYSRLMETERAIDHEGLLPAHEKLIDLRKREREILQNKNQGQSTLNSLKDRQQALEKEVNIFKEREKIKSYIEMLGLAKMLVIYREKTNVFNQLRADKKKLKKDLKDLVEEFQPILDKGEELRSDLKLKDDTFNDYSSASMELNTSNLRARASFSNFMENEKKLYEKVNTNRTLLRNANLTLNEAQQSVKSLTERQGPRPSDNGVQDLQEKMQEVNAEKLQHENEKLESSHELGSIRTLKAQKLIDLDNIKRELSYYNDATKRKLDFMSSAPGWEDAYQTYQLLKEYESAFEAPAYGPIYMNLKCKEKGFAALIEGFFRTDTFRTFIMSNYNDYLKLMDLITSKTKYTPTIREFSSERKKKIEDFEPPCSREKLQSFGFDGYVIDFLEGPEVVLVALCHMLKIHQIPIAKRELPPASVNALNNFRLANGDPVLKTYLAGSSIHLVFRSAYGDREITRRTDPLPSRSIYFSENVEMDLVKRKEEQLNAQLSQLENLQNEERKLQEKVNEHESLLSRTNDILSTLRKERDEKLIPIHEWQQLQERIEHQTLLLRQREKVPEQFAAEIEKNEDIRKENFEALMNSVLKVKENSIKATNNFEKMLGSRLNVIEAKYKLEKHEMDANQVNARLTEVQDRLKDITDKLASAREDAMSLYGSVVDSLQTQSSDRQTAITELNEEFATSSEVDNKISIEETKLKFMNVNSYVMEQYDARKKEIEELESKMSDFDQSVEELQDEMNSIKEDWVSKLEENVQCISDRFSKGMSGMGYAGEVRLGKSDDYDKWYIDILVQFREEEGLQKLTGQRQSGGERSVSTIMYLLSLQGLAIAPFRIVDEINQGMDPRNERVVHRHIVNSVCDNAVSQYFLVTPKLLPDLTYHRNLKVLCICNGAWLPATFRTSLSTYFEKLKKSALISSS

[5] = molecular target: T5, S. pombe Smc6 (S. pombe) (UniProt P53692)
T5 sequence: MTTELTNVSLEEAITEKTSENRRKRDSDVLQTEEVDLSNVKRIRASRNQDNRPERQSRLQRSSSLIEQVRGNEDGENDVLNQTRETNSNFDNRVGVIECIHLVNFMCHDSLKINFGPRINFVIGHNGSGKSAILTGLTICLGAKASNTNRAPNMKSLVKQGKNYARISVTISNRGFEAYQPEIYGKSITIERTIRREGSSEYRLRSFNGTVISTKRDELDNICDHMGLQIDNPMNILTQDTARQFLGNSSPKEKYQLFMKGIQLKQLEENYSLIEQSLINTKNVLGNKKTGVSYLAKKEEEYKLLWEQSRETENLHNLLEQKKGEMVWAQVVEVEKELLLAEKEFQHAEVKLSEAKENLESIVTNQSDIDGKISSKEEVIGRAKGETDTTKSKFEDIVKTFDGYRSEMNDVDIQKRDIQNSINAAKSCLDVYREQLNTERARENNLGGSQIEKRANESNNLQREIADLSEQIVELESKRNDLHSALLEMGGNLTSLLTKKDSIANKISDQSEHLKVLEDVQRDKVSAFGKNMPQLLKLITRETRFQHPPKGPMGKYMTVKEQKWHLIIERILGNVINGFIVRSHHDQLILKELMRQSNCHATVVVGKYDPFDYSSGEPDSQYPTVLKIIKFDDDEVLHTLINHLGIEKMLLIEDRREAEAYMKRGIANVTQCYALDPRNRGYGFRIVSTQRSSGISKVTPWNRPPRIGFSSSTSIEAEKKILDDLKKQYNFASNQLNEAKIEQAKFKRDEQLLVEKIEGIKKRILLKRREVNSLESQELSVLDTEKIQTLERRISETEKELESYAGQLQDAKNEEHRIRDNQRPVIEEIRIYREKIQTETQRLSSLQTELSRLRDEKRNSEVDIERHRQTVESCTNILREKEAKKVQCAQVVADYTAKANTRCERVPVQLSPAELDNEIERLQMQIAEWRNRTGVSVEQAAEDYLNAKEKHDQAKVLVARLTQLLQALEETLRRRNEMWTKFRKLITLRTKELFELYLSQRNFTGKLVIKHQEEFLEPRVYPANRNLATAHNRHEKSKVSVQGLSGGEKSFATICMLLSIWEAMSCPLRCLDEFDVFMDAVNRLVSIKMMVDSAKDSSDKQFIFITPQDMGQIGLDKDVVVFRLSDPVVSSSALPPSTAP

[6] = molecular target: T6, S. pombe Nse4 (S. pombe) (UniProt Q6BDR8)
T6 sequence: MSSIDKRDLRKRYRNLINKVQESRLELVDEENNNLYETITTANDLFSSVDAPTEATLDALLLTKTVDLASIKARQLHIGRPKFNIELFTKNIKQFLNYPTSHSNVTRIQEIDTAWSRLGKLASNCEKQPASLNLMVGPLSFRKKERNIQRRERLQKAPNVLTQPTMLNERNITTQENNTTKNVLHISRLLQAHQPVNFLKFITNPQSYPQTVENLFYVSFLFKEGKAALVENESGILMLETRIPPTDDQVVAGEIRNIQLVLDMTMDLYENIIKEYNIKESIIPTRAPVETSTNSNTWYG

Measured: binding

B1: S. pombe Nse4 (protein, UniProt Q6BDR8 1-300)
chain: MSSIDKRDLRKRYRNLINKVQESRLELVDEENNNLYETITTANDLFSSVDAPTEATLDALLLTKTVDLASIKARQLHIGRPKFNIELFTKNIKQFLNYPTSHSNVTRIQEIDTAWSRLGKLASNCEKQPASLNLMVGPLSFRKKERNIQRRERLQKAPNVLTQPTMLNERNITTQENNTTKNVLHISRLLQAHQPVNFLKFITNPQSYPQTVENLFYVSFLFKEGKAALVENESGILMLETRIPPTDDQVVAGEIRNIQLVLDMTMDLYENIIKEYNIKESIIPTRAPVETSTNSNTWYG
not listed: [6]
binds: all other assays above

B2: S. pombe Nse3 (protein, UniProt Q9Y7U4 1-328)
chain: MSQLSFTGKSSSKGRSRLTQEVRPTASQIIADEEASDLDEYEEDLEGSGNEDDFGPSMSRSSRGRKRRKGDPLELQSQFEERNETDAINFQLLVRNVVRYAICSQTSHNTITRKDIVQKAFPEGTSRNLFQSVFEEADRQLQLSFGFRLVAVTQSNRKKDMAVSQLRRPATSNANSSNLHRYWVLRSTLPMELQKDSRLIVDSVLDTAYYGFLMTVIAFIAVSHCSVGHSELQSFLQELLTEEETTPLHLDITRSLSLLVRQGYLDRVKDDTHNQFVYYIGSRAVTEISIEGLKSFVTEFFPDSDIDMDALLTEYRQEYQNQSSSSAA
not listed: [3]
binds: all other assays above

B3: S. pombe Nse1 (protein, UniProt Q53EK2 1-232)
chain: MEKERQDGLSDKHKFILQYIMCRTAGVDNEQVRELVQEQYGETATVEDVINELNNSLHNFDFKIKRVQDQLDGRLTLHFQNLSGDPVSQMATPYPPVQIELMRKIIEWIMKCDDYQYSLTTLQIQKLSRKEMGLAPSVIESHLHTFERDGWLRQREGIWTFTNHALAELDAYLHNEYESNLYECNACREIVIAGYVCDCGYCLHVYCCKHLAHVNCINCNTPWANATVIGRW
not listed: [1]
binds: all other assays above

B4: S. pombe Nse2 (protein, UniProt Q4PIR3 1-250)
chain: MSEAQLKTSLEALSQNLLPGNQNHCSFDFQLKEIDDSIKQVIKCALVAAEIKNNECLDMLDSGIRELLDAKQRLLLMQQSVDTLANKTSENISDFENKSLLDIYTQIFKELIQEYEEKSDYGKYGTQGEYIEFKKTIWHEQNTDGSDFPSMKTFFNVMNTEEQEADEVMVYSATFDNRCPLTLQPIVHPILSTACNHFYEKDAILSLLNPTCVCPVVGCEARLQRSLLKEDEILERRLRRAQEISNLKEA
not listed: [2]
binds: all other assays above
